# Laboratory results as given in PubChem BioAssay AID2685 (National Center for Advancing Translational Sciences (NCATS), 2010).
# The other results are listed elsewhere or left out. Shown are side measurements of this screen, not its main read-out; they come without a call. Compounds called inactive in the main read-out are mostly missing here. The note in brackets gives the kind of curve behind each potency; many fits are weak.
# Test: qHTS Assay for Lipid Storage Modulators in Drosophila S3 Cells;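 for cell number change: cells counted by Cell Tracker Red CMTPX staining in the red channel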
# Conditions: BODIPY lipid droplet fluorescence, 18-24 h; for cell number change: measured here: cell count max response, cells fed with added oleic acid
# How it was run: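 Drosophila S3 cells loaded with oleic acid (400 uM, as added) and compounds at several concentrations; lipid droplets imaged by 488-nm laser-scanning cytometry, 500–530 nm intensity and object ratio to cell channel. Percent activity normalized to 20 uM Triacsin C.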
# [1] = measured here: lipid fluorescence (Fed channel) AC50, cells fed with added oleic acid
# [2] = measured here: cell number channel AC50, cells fed with added oleic acid
SMILES,cell number change,AC50 [1],AC50 [2]
CCN(C(=O)COC(=O)/C=C/c1ccccc1[N+](=O)[O-])C1CCS(=O)(=O)C1 (configuration not stated),-10.1%,"0.92 µM [rising, full curve]",–
O=C(CCn1nnc2ccccc2c1=O)N[C@@H](Cc1ccccc1)C(=O)O,10.9%,"0.58 µM [falling, partial curve]","0.651 µM [falling, single point]"
COc1ccccc1CNC(=O)c1cc(-c2ccccc2)nn1Cc1cc(C)no1,-2.71%,"29.1 µM [falling, single point]",–
CC(=O)Nc1ccc(S(=O)(=O)N(C)CC(=O)NC2=NCCS2)cc1,2.73%,"0.00461 µM [falling, full curve, poor fit]",–
CC(C)CS(=O)(=O)C1=NN2C(=N)/C(=C\c3ccc(OC(=O)c4ccco4)cc3)C(=O)N=C2S1,22.7%,–,–
O=C(CSc1nccn1-c1ccc(Cl)cc1)Nc1ccc2c(c1)OCO2,-13.1%,"2.31 µM [falling, partial curve]",–
CCOC(=O)N1CCC(NC(=O)c2cc3c(-c4ccc(Cl)cc4)nn(C)c3s2)CC1,-36.2%,"2.06 µM [falling, full curve]","2.06 µM [falling, full curve]"
CCc1c(C)nc2cc(-c3cc(OC)cc(OC)c3)nn2c1N1CCCC1,-73.3%,–,"16.4 µM [falling, single point]"
Clc1ccccc1CSC1=NCCCN1,16.6%,"29.1 µM [falling, single point]",–
CCOc1ccc(Nc2nc(N)c3ccccc3n2)cc1,-17.9%,–,–
COc1ccc(Nc2nccc(OC)c2C#N)cc1,15%,"6.51 µM [falling, single point]","1.64 µM [falling, partial curve]"
O=c1c(Cl)c(Cl)cnn1Cc1ccc(F)cc1,2.45%,"1.64 µM [falling, partial curve]",–
O=C(CCC(=O)N1CCOc2ccccc21)NC1CCCCCC1,24.2%,"18.4 µM [rising, single point]",–
OCc1cc(CO)c(O)c(CCc2ccccc2)n1,-0.117%,"0.00461 µM [rising, full curve, poor fit]",–
CSc1cccc(NC(=S)N(CCN(C)C)C(C)c2ccncc2)c1 (configuration not stated),-9.53%,"20.6 µM [rising, single point]",–
CC1=CCP(=O)(c2ccccc2)C1 (configuration not stated),-5.24%,"23.1 µM [falling, single point]",–
CCOc1ccccc1CN1CCC(n2nccc2NC(=O)CCc2ccccc2)CC1,58.1%,"29.1 µM [rising, single point]","18.4 µM [rising, single point]"
CC(C)NCC(O)Cn1c2c(c3ccccc31)CCc1c-2cnn1-c1ccccc1 (configuration not stated),-27.8%,"16.4 µM [falling, single point]",–
COc1ccc(N2C(=O)CC(Sc3nnc(-c4ccccc4)o3)C2=O)cc1 (configuration not stated),-67.6%,"29.1 µM [falling, single point]","29.1 µM [falling, single point]"
O=C(c1ccc(Cn2cc(Br)cn2)cc1)N1CCN(c2ccccc2)CC1,–,–,"3.66 µM [rising, single point]"

SMILES,cell number change,AC50 [1],AC50 [2]
CC(=O)N1CCCN(Cc2cn(-c3cc(C)ccc3C)nc2-c2ccccc2)CC1,-5.45%,–,"0.651 µM [falling, full curve, poor fit]"
CCOC(=O)C(Sc1ncn[nH]1)c1ccccc1 (configuration not stated),-7.31%,"0.0058 µM [falling, full curve, poor fit]",–
O=C1OCCN1C(=O)[C@H]1[C@H](c2ccc(F)cc2)C(c2ccc(F)cc2)=NN1c1ccc(Br)cc1,-2.27%,"29.1 µM [rising, single point]",–
O=C(CC1CCCCC1)Nc1ncn[nH]1,14%,"5.8 µM [falling, partial curve]",–
CN(C)C(=O)N1CCC(C(=O)NCc2ccc(F)cc2)CC1,-2.98%,–,"0.103 µM [falling, single point]"
COc1ccc(CN2CCc3ccccc3C2)c(OC)c1OC,-127%,–,"23.1 µM [falling, single point]"
CCOc1ccc(NC(=O)Nc2cc(C)on2)cc1,6.88%,"10.3 µM [rising, partial curve]",–
COc1ccc(C)cc1NC(=O)c1cnc2sccn2c1=O,–,"0.13 µM [rising, full curve, poor fit]",–
Cc1cc(C)cc(NC(=O)CS(=O)(=O)c2cccc3nsnc23)c1,24.6%,–,–
CC(=O)Nc1ccc(NC(=O)c2cc(S(=O)(=O)N3CCCCC3)ccc2C)cc1,29%,"16.4 µM [rising, partial curve]",–
COc1cccc(CC(NC(C)=O)C(=O)NC2CCN(C(=O)C3CCCCC3)CC2)c1OC (configuration not stated),3.23%,"0.82 µM [rising, single point]",–
CCC(=O)NCCCc1nc2ccccc2n1Cc1ccccc1F,–,"6.51 µM [falling, single point]",–
COc1ccc(S(=O)(=O)N2CCCCCC2)cc1C(=O)N(C)Cc1cccs1,-0.879%,"20.6 µM [falling, single point]",–
O=C(N/N=C/c1ccc([N+](=O)[O-])o1)c1ccncc1,-24.6%,"16.4 µM [falling, partial curve]",–
O=C(O/N=C\c1ccc(N2CCOCC2)c([N+](=O)[O-])c1)c1ccc(F)cc1,-12.6%,"0.731 µM [rising, full curve, poor fit]",–
Cc1cccc(C2Nc3cccc4cccc(c34)N2)c1,-7.21%,"0.58 µM [falling, single point]",–
O=C(CNC(=O)c1ccc(F)cc1)NCc1ccccn1,-6.32%,"1.3 µM [rising, partial curve]",–
Cc1ccc(-c2n[nH]c(=S)n2/N=C/c2ccc(C)s2)cc1,-47.5%,"25.9 µM [falling, partial curve]","23.1 µM [falling, partial curve]"
CCCCC(=O)N(c1ccc(OC)cc1)C1C=CS(=O)(=O)C1 (configuration not stated),–,"0.116 µM [falling, full curve, poor fit]",–

# Sorted by SMILES length (falling): part of the list above
SMILES,cell number change,AC50 [1],AC50 [2]
CC(C)NCC(O)Cn1c2c(c3ccccc31)CCc1c-2cnn1-c1ccccc1 (configuration not stated),-27.8%,"16.4 µM [falling, single point]",–
Cc1cc(C)cc(NC(=O)CS(=O)(=O)c2cccc3nsnc23)c1,24.6%,–,–
CCC(=O)NCCCc1nc2ccccc2n1Cc1ccccc1F,–,"6.51 µM [falling, single point]",–
